The record followed here is paper PMC6035221, “Interaction between parasite-encoded JAB1/CSN5 and macrophage migration inhibitory factor proteins attenuates its proinflammatory function” (Scientific Reports, 2018).

These are yes or no findings as the source states them, for the method shown. In cells and extracts the contact can be indirect. These calls come from enrichment with a bait or labelling near it, and not all partners need be listed. Sequences can lack the tags named with a protein.

The target of the experiment is T1, Entamoeba histolytica MIF (EhMIF), endogenous (Entamoeba histolytica (endogenous in trophozoites)) (UniProt C4LV00).
T1 sequence: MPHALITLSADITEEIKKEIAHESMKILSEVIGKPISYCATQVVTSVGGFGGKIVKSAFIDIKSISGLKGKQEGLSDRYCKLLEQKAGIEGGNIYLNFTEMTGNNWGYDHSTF
In words: affinity purification with mass spectrometry; anti-EhMIF rabbit serum or rabbit IgG cross-linked to Protein A Dynabeads, 500 µl amebic lysate (20 mM Tris HCl pH 8, 137 mM NaCl, 1% TritonX-100, 2 mM EDTA), overnight at 4 °C; eluate analysed by mass spectrometry.

B1: Entamoeba histolytica-encoded JAB1 (EhJAB1), endogenous (protein, UniProt C4LTS3 1-318)
chain: MGEEAAYKEWEKVNGVKYIEEDKLLEWNDSEREQIFKDRPWKKDPYYFKKCYVSSVALLKMVMHAKQGEPLEIMGILIGQTKGDSFVITDVVSLPVEGTETRVNASADCDAYMLQYGEYKNSTGFKEPFCGWYHSHPSYKCWLSGIDVATEKLHQSINDPWIAIVVDPVTTSTNGKIEIGAFRTFPEGFKPQQKAEMKKVLPSEKIADFGSYYDSYYSIKVELFKTKLDDQVLRLLWHEYWINTLAATAIISSRDVMDEKIIDLYDKFTAELKNNKSNVVDACGAILDDAKEIQMIYERGIKSLDLKNILFNQKVTGK
With B1, the binding result is “binds”.
